PubChem BioAssay AID743454, Peter MacCallum Cancer Centre, 2014
Screen: 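Genes whose loss kills vorinostat-resistant colon cancer cells under vorinostat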 (primary screen). Cells: human HCT116-VR colon cancer cells, selected for vorinostat resistance. Reagent: siRNA pool against human genes, 40 nM siRNA pool. Duration: vorinostat for 24 h, read-out about 72 h after transfection. Treatment: vorinostat at 2.5 µM final. Detection: 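Cell viability by CellTiter-Fluor and caspase 3/7 activity by luminescence, each scaled to mock wells per plate, duplicates averaged, then robust z-scored over all plates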. Reading the numbers: viability robust z-score: higher = more viable cells than screen typical; caspase robust z-score: higher = more caspase 3/7 activity than screen typical. Call rule: 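Hits are knock-downs in viability class RV1/RV2 or caspase class CA1/CA2, excluding ones that killed cells in the no-drug cell-count arm; hits then retested with single siRNAs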.
The whole screen tested about 18,000 reagents; below is an unselected part. 450 of all reagents (2.5%) count as active. 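Single biological run; no consistent viability z cut-off exists, so the class columns, not z-scores, define the calls.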 Entries without a mark were called inactive.

gene knocked down,viability hit class,caspase hit class,viability robust z-score,caspase robust z-score
TMEM135 (transmembrane protein 135),no change,no change,-0.11,-1.1
MAGEA10 (MAGE family member A10),no change,no change,1.83,-0.52
GDF5 (growth differentiation factor 5),no change,no change,1.39,-0.22
IGF2BP3 (insulin like growth factor 2 mRNA binding protein 3),no change,no change,-1.21,0.08
ARHGEF28 (Rho guanine nucleotide exchange factor 28),no change,no change,0.82,-0.39
ZNF512 (zinc finger protein 512),no change,no change,0.29,-0.37
"ST3GAL3 (ST3 beta-galactoside alpha-2,3-sialyltransferase 3)",no change,no change,-1.84,-0.53
HOXA13 (homeobox A13),no change,no change,-0.42,-0.28
ZCCHC14 (zinc finger CCHC-type containing 14),no change,no change,0.6,-0.84
ZMYND8 (zinc finger MYND-type containing 8),no change,no change,-0.48,-0.66
ACTN1 (actinin alpha 1),no change,no change,1.06,1.29
RECQL4 (RecQ like helicase 4),no change,no change,0.06,0.07
EDN2 (endothelin 2),no change,no change,0.14,1.46
YAE1 (YAE1 maturation factor of ABCE1),no change,no change,2.08,0.12
KIF23 (kinesin family member 23),no change,no change,-2.21,3.08
PRSS58 (serine protease 58),no change,no change,0.16,-0.56
UCHL5 (ubiquitin C-terminal hydrolase L5),no change,no change,0.51,-0.59
ZNF747 (zinc finger protein 747),no change,no change,-1.08,3.26
CRLF2 (cytokine receptor like factor 2),no change,no change,0.4,2.74
OOEP (oocyte expressed protein),no change,no change,0.75,0.95
RPS27L (ribosomal protein S27 like),no change,no change,-0.1,0.3
CDH11 (cadherin 11),no change,no change,0.56,-0.68
PRR4 (proline rich 4),no change,no change,0.48,1.3
ERBB2 (erb-b2 receptor tyrosine kinase 2),no change,no change,0.29,-0.22
GALNT7 (polypeptide N-acetylgalactosaminyltransferase 7),no change,no change,0,1.16
RFC4 (replication factor C subunit 4),no change,no change,-0.32,-0.32
SLC46A3,no change,no change,-0.12,1.68
LMLN (leishmanolysin like peptidase),no change,no change,0.51,-0.02
HHATL (hedgehog acyltransferase like),no change,no change,1.18,-0.46
MYBPC1 (myosin binding protein C1),no change,no change,0.14,0.52
GOLGA7 (golgin A7),no change,no change,0.7,-0.9
EIF4H (eukaryotic translation initiation factor 4H),no change,no change,-0.53,3.59
NECAP1 (NECAP endocytosis associated 1),no change,no change,0.82,0.66
NYX (nyctalopin),RV2 (reduced viability) (active),no change,-2.96,1.58
SACK1A (scaffolding CK1 anchoring protein A),no change,no change,0.3,0.74
CAMSAP2,no change,no change,0.02,-0.66
"TUFM (Tu translation elongation factor, mitochondrial)",no change,no change,-0.02,-0.4
TBC1D19 (TBC1 domain family member 19),no change,no change,-0.09,-1.1
GZMA (granzyme A),no change,no change,0.4,-0.7

Targets listed so far whose gene name starts with A or a:
gene knocked down,viability hit class,caspase hit class,viability robust z-score,caspase robust z-score
ARHGEF28 (Rho guanine nucleotide exchange factor 28),no change,no change,0.82,-0.39
ACTN1 (actinin alpha 1),no change,no change,1.06,1.29
